For at least one compound, name, drawing or mass did not settle the structure.
Test system: SARS-CoV-2
Assay: SARS-CoV-2 replication in Caco-2 and ACE2-A549 cells (Spike expression, E RNA)
Format: cell-based
Details: 100 μM, 48 hours, FIG. 16

COc1ccc(/C=C/C(=O)Nc2ccccc2C(=O)O)cc1OC [Tranilast]
SARS-COV-2 replication: inhibits SARS-COV-2 replication

Source: patent US20230302031A1, “Modulators Of Purinergic Receptors and Related Immune Checkpoint For Treating Acute Respiratory Distress Syndrome” (priority 2020, published 2023)
